Measurements taken from PMC10163288.
The other results are listed elsewhere or left out.

B1: il10ra_site1_normal_mot_HHH_b2_03183_af2_000000055_0001_40_56_H_._HHH_b1_06261_af2_0001_0000200010_0000001_0 (protein)
chain: SSSSSQEEELARAVARLIRQALEFGDKRAVRFLLEALEILAEELNDEELKEFIEEVEELISSSSS
B2: il10ra_site1_normal_mot_0eddeacbb14b769e73e254714f31e2f9_0001_af2_000000203_0001_37_51_H_._HHH_b1_03453_0001_0000100005_0000001_0_af2pred_0001 (protein)
chain: SSSSSSDDEVIRLAAEIALLLRRGNEEEAEKLLEEARELAKELNNPELERLLEILVRLTSSSSSS
B3: il10ra_site1_sap_22_mot_HHH_b2_07145_000000158_0001_24_40_H_._HHH_b2_07052_0001_0000300025_0000001_0_0001 (protein)
chain: SSSSTEAAQLAIELMREAAEAHRRGDPEEARELLEEAERILEEGNNRVVLHNVRYLLKKVTSSSS
B4: il10ra_site1_sap_13_mot_HHH_b2_03827_000000021_0001_1_19_H_._HHH_b2_08297_af2_0001_0001200013_0000001_0_0001 (protein)
chain: SSSSSDREEVEELLEEAEERRKEGDRERVAELLLRALRIAYENKNEEALRLIWEVVRRLASSSSS
B5: il10ra_site1_normal_mot_a6c796b944619e241e020fd597ddb6da_0001_af2_000000092_0001_15_31_H_._HHH_b1_07083_0001_0000300023_0000001_0_af2pred_0001 (protein)
chain: SSSSSSTEEVRARALVIAAKQASNPDAARITLEVALEIARKLNDEELVEEIEELLEEYSSSSSSS
B6: il10ra_site1_sap_11_mot_HHH_b1_02881_000000046_0001_1_20_H_._HHH_b2_01251_0001_0000200007_0000002_0_0001 (protein)
chain: SSSSSSDELVQLTTELVELYREGDEEEVEKVAEELRRLAEELNNPMAAWIAEMMLRVLSSSSSSS
B7: il10ra_site1_sap_15_mot_HHH_b1_01467_000000089_0001_1_18_H_._HHH_b1_05739_0001_0000300043_0000001_0_0001 (protein)
chain: SSSSNLEEYVKLALRFARHLAKHNPEAARALLEAMLEIVKKHGNEELAKEIEKLIEELESSSSSS
B8: il10ra_site1_sap_14_mot_ems_3hM_3637_000000290_0001_1_19_H_._HHH_b1_03012_0001_0000200018_0000001_0_0001 (protein)
chain: SSSSSEAERSAEFLLRAAREARKNGNEEYARLALRFAIHLARWAGNEELLEELEKLLEELGSSSS
B9: il10ra_site1_sap_26_mot_HHH_b2_03425_000000200_0001_22_39_H_._HHH_b1_08385_0001_0000100007_0000002_0_0001 (protein)
chain: SSSSSEELKELLEELEELAEEGDERQFAQLAAKIMRLIYELGDEEAAEELLRIAAKFLNRSSSSS
B10: il10ra_site1_normal_mot_HHH_b1_00999_000000080_0001_41_55_H_._HHH_b1_01870_0001_0000600018_0000001_0 (protein)
chain: SSSSSSSEEEVEELLEEAKEIDDPREAARVLQEATHIALRNQNPELLRLVWEVVKRLGSSSSSSS

Target: il10ra, Q13651
Assay: yeast display titration

Apparent Kd, inactive:
B1 no binding seen
B2 no binding seen
B3 no binding seen
B4 no binding seen
B5 no binding seen
B6 no binding seen
B7 no binding seen
B8 no binding seen
B9 no binding seen
B10 no binding seen
